Results on two molecules are retold here after US20090286727A1 (Ablynx, published 2009).

Protein sequences, listed by entry. Tags and fused reporters are not part of them. Residues count along the entry.
UniProt P05231, residues 30-212: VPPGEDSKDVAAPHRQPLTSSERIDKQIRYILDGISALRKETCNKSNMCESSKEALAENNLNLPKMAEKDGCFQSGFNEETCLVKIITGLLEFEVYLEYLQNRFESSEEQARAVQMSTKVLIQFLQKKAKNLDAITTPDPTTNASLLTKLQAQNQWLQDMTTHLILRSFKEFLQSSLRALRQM

The target of one test is T1, IL6R.
T1 sequence: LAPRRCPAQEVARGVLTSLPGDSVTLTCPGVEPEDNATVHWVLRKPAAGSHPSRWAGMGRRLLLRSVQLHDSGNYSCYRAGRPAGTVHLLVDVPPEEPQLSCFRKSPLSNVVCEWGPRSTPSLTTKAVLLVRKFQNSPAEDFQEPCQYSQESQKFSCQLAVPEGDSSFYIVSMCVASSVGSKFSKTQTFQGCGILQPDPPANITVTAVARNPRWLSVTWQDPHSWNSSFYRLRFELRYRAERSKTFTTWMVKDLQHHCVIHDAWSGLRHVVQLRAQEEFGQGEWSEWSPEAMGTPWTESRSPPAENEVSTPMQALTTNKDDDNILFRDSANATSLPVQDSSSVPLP
Kind of test: SPR (Biacore 3000), 300 nM Nanobody passed over a CM5 chip with human IL6R.

Another test deals with T2, human IL6 (human, UniProt P05231 30-212, biotinylated in the ELISA (bio-IL6); site not given).
T2 construct: In the ELISA it was biotinylated and captured on a neutravidin-coated plate; In Biacore it was on a CM5 sensor chip; also called bio-IL6; biotinylated human IL6
Put plainly: SPR (Biacore 3000), 300 nM Nanobody passed over a CM5 chip with human IL6. A general note: In SPR one partner is held on a chip, and binding of the other changes the refractive index at the surface.

These are yes or no findings as the source states them, for the method shown. Some entries that bind do so weakly or less than the wild type.

B1: VH4 20.1 (VHH)
VHH: QVQLQESGPGLVKPSQTLSLTCTVSGGSITTYNYAWSWIRQPPGKGLEWMGVIAYDGSTYYSPSLKSRTSISRDTSKNQFSLQLSSVTPEDTAVYYCARGTVGSWYDEFPPRYDYWGQGTQVTVSS
notes: The two are tied only by the clone number; also called anti-IL6 VH4 Nanobody 20.1; VH4 Nanobody 20.1; not shown: His6 tag from vector pAX51
Take B1: the binding result with IL6R was “no binding (tested: 300 nM)”; in the test with human IL6 it was “binds”.

B2: VH4 16.1 (VHH)
VHH: QVQLQESGPGLVKPSQTLSLTCTVSGGSITTYRYYWSWIRQPPGKGLEWMGAIAYSGSTYYSPSLKSRTSISRDTTKNQFTLQLSSVTPEDTAVYYCARGRLGSWYYELNEYDYWGQGTQVTVSS
notes: The two are tied only by the clone number; Llama VH4-class Nanobody, purified by IMAC as a His6-tagged protein; also called anti-IL6 VH4 Nanobody 16.1; VH4 cl16; not shown: His6 tag from vector pAX51
As for B2, the figures for the binding result in the test with IL6R and in the test with human IL6 were “no binding (tested: 300 nM)” and “binds”, respectively.
